No constants are given. Whether binding was seen depends on the method and setting. In cells and extracts the contact can be indirect. Where a sequence is shown, tags or fusion partners need not be part of it.
Biological target: T1, Myc-ID1 (UniProt P41134)
T1 sequence: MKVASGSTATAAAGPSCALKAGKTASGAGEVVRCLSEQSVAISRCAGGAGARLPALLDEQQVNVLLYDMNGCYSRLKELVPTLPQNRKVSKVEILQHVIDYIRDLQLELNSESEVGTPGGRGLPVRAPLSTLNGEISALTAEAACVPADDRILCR
Assay: co-IP; truncated constructs of ID1 (pEBG-GST) tested with TRIM21 and truncated constructs of TRIM21 (pcDNA3) tested with ID1; cells not given

“TRIM21#1 (zinc finger domain) (domain or fragment)” was tested, and the binding was “no binding”.

With “TRIM21#2 (coiled-coil domain) (domain or fragment)” the binding was “no binding”.

Source: PMC12462935, “TRIM21‐Mediated K11‐Linked Ubiquitination of ID1 Suppresses Tumorigenesis and Promotes Cuproptosis in Esophageal Squamous Cell Carcinoma” (Advanced Science, 2025)
